At least one structure is not confirmed: it was looked up by name or label, or the drawing left a doubt.
Columns and labels:
[1] = system: CMV promoter in KG-1 Luc cells; test: CMV promoter analysis by NOMe-Seq: DNA methylation and nucleosome occupancy; format: cell-based, human
Description: Using the Nucleosome Occupancy and Methylome Sequencing (NOMe-Seq) technique, the methylation status of the CMV promoter and the position of the nucleosomes on such promoter were both analysed.
NOMe-seq is a modified version of the methylation-dependent single promoter assay described by Miranda et al. (Curr Protoc Mol Biol. 2010 21.17.1-16) and the methylase-based DNA assay was performed as previously described with minor modifications (Hochedlinger K, Plath K 2009; Sharma et al. 2010, You et al. 2011, Kelly et al. 2012). After nuclei extraction, GpC methyltransferase (M.CviPI; New England Biolabs) reactions were done in M.CviPI reaction buffer. GpC methyltransferase treatment was followed by DNA extraction, sodium bisulfite conversion, PCR amplification of the region of interest, cloning, and sequencing of individual clones to reveal the structure of single replicas as functional units. After treatment with the compounds or with DMSO, KG-1 Luc cells were centrifuged for 5 min at 500×g. Cell pellets were washed in ice-cold PBS, resuspended in 1 mL of ice-cold nuclei buffer [10 mM Tris (pH 7.4), 10 mM NaCl, 3 mM MgCl2, 0.1 mM EDTA, and 0.5% Nonidet P-40, plus protease inhibitors] per 2×10^6 cells, and incubated on ice for 10 min. […]

[2] = system: metastatic melanoma cells WM-266-4 GFP; test: Spheroid formation and invasion assay; format: cell-based; details: 0.1 or 0.32 μM, 24 h invasion, vs DMSO

## COc1ccc2cc1Oc1ccc(cc1)C[C@@H]1NCCc3cc(OC)c4c(c31)Oc1cc3c(cc1O4)CCN(C)[C@H]3C2 [Compound 1, Trilobine]
[1]
  Chromatin opening on the CMV promoter (in words): open the chromatin
  Demethylation of the CMV promoter in the cancer cells (in words): able to demethylate the CMV promoter
[2]
  Invasion index (fluorescent invasion area of spheroids): decrease the invasion index
